Consider two molecules from paper PMC11144275 (The Lancet. Infectious diseases, 2019).

Counter-ions that a name gives are not always drawn.

One assay concerns EBOV-Ituri. In kind it is cell-based, Ebola virus.
The next assay has as its system EBOV-Makona. In kind it is cell-based, Ebola virus.

For `CCN(CC)CCOc1ccc(C(=C(Cl)c2ccccc2)c2ccccc2)cc1` [Clomifene citrate], in the assay on EBOV-Ituri, the “EBOV-Ituri Selectivity index” value worked out at 70. In addition, in the assay with EBOV-Makona, the “EBOV-Makona Selectivity index” value came out at 42.

Regarding `CC/C(=C(\c1ccccc1)c1ccc(OCCN(C)C)cc1)c1ccccc1` [Tamoxifen], the “EBOV-Ituri Selectivity index” value with EBOV-Ituri came out at 151. Also, the “EBOV-Makona Selectivity index” value with EBOV-Makona worked out at 52.
